The text below walks through data of PMC7819943, “Rice protein-binding microarrays: a tool to detect cis-acting elements near promoter regions in rice”.

The chains behind the UniProt entries cited, without tags or fusion partners.
UniProt Q0JBA9, entry or part of it: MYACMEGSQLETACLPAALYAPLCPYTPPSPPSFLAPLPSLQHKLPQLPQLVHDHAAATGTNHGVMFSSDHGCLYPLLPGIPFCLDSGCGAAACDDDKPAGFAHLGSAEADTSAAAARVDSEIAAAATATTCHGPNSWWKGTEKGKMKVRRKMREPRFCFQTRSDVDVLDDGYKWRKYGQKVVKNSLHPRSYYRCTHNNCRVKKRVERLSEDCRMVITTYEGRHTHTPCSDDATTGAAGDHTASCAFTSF

The other results are listed elsewhere or left out.

In the assay the target is OsWRKY34 (Oryza sativa, UniProt Q0JBA9 1-250). The assay can be described thus: protein-binding microarray (RPBM); PBS, 2% BSA, 51.3 ng/ul salmon testes DNA, 50 uM zinc acetate, 200 nM TF, 25 C, 1 h; high values mean tight binding. Particulars: protein: recombinant; tags: N-terminal polyhistidine and DsRed monomer fusion (pET32a); label: CyDye5-dUTP incorporated in the synthesized complementary strand; 3' TTTTT single-stranded linker to array surface; dsDNA, one strand shown. In short, it runs like this: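 Using Ni–NTA, transcription factors fused N-terminally to polyhistidine and DsRed were purified after expression in E. coli BL21-CodonPlus. These were incubated at 200 nM with a blocked, double-stranded custom Agilent array for 1 h at 25 °C in a buffer containing 50 µM zinc acetate, and the array was washed. The binding signal is per-feature fluorescence intensity (arbitrary units) on an Axon 4000B scanner.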
On to “ATCCCAATCTTCCCCTGCCCACATCTGCTTCCCAGCATCCCGGAGTCACCTAGTGCAG”, for which the binding signal was 8720 fluorescence intensity (a.u.).

For “TTCTCTGTCTTCCCGTTGTGTTTGGAAAGAAACTGTTTGTCGGAGTCACCTAGTGCAG”, the binding signal was 9660 fluorescence intensity (a.u.).

For the sequence “ATAGGGGAGGAGGGGCGAGGCGTGGAGGGGACCGGGGACGCGGAGTCACCTAGTGCAG”, the binding signal is 10300 fluorescence intensity (a.u.).

In the case of “TACACGTCACCACCCGACTCGTCTCCTCTTGTCTCTCTTCCGGAGTCACCTAGTGCAG”, the binding signal is 8930 fluorescence intensity (a.u.).

For “TGTGCATTTTTTGTCAAAGAAGACCATCGTGGTTCATGTCCGGAGTCACCTAGTGCAG”, the binding signal was 9230 fluorescence intensity (a.u.).

Consider “GCTACTTTGCGCTCGCGTCGGCGTCGGCTTCTGTCTCCGACGGAGTCACCTAGTGCAG”, for which the binding signal is 12500 fluorescence intensity (a.u.).

For the sequence “AGGGTCTTTTTTTTTTTTCTGGGCATGTGGTTTTGACAAGCGGAGTCACCTAGTGCAG”, the binding signal was 10400 fluorescence intensity (a.u.).

On to “TCCCTCTCGTCAATCTCTCTCTCTCTCTCTCTCTCTCTCTCGGAGTCACCTAGTGCAG”, for which the binding signal is 8620 fluorescence intensity (a.u.).

Consider “ATCCGCAGACCAAGTCAACACTGCTACGTGAACACCACATCGGAGTCACCTAGTGCAG”, for which the binding signal is 9850 fluorescence intensity (a.u.).

With “AATGGGCTGTAGTGTACTCCTCCAACCTTTTCGCGCCGGCCGGAGTCACCTAGTGCAG”, the binding signal is 9480 fluorescence intensity (a.u.).

Consider “CTTTTGCAGACGGTCTTTATAACTTTGAATGGATCTTGGACGGAGTCACCTAGTGCAG”, for which the binding signal is 8810 fluorescence intensity (a.u.).

Turning to “TCTCTCTCTCTCTCTCTCTTCTCTCTCCTGGCATCTCAGCCGGAGTCACCTAGTGCAG”, the binding signal was 9520 fluorescence intensity (a.u.).

For “GGTTTCCACGCGTCGTTTATTACCTTTGCAGACGGTTTCACGGAGTCACCTAGTGCAG”, the binding signal is 10500 fluorescence intensity (a.u.).

For the sequence “CGCGTCTTCTCCATTTCCCATCACATTTCACACGCCCGCACGGAGTCACCTAGTGCAG”, the binding signal was 11200 fluorescence intensity (a.u.).

On to “TATGTGATTTTCTTTCCTTAATCTCGTTTTAGGCTAATTACGGAGTCACCTAGTGCAG”, for which the binding signal is 8490 fluorescence intensity (a.u.).

“TTCCCCACCACCACCAACCCAGACCGGCCGCGGCCTATATCGGAGTCACCTAGTGCAG”: the binding signal is 8270 fluorescence intensity (a.u.).

Take “TATAAACTTAGTCAAACTTGTAGCAGTTTGATTTTGACTACGGAGTCACCTAGTGCAG”: the binding signal is 9920 fluorescence intensity (a.u.).

Regarding “GTATATCACTATTCCCAAACTGGTGTCTACTCTTTACCGTCGGAGTCACCTAGTGCAG”, the binding signal is 8920 fluorescence intensity (a.u.).

With “GTATAATAATTCGTTTAGTTTTACTACTTCACCGTCTCTTCGGAGTCACCTAGTGCAG”, the binding signal is 9290 fluorescence intensity (a.u.).

Consider “CTACTTCAACGGTGCCTTTTTCTTGGATCTATGGTCGAATCGGAGTCACCTAGTGCAG”, for which the binding signal is 11700 fluorescence intensity (a.u.).

Consider “CTCGTGGCTTTGTTGGCCTCACTGCTCACTTGTCCTGTCACGGAGTCACCTAGTGCAG”, for which the binding signal is 8240 fluorescence intensity (a.u.).

Take “CCGGCCCGTTACTACATATCATAGAGTACTATTCATCTTACGGAGTCACCTAGTGCAG”: the binding signal was 8610 fluorescence intensity (a.u.).

“TTCTGTACTCTAGCTTCTGGTCTCTAGTGTTTCACCACCACGGAGTCACCTAGTGCAG”: the binding signal is 8560 fluorescence intensity (a.u.).

In the case of “CGTCCATTGCCTGCAGAAACGGACGGCGCGGGTGGGTGGGCGGAGTCACCTAGTGCAG”, the binding signal was 8950 fluorescence intensity (a.u.).

For the sequence “CCACCGTCGACGCCACCTCCGCCGGCCCCGCCACGCGGCGCGGAGTCACCTAGTGCAG”, the binding signal is 8290 fluorescence intensity (a.u.).

Consider “ATCGCCGCAACCACCAACCTCTCGAGGCCGTTCGAATCCCCGGAGTCACCTAGTGCAG”, for which the binding signal was 12300 fluorescence intensity (a.u.).

As for “GTGTGTGCGTTTGTGTGTGTATATAGTAGTTAGGCCAATTCGGAGTCACCTAGTGCAG”, the binding signal was 11500 fluorescence intensity (a.u.).

For “TCCGCACTCACAAGCTGTACGATCCGTTCCGTTCGTCCTTCGGAGTCACCTAGTGCAG”, the binding signal is 10200 fluorescence intensity (a.u.).

Consider “CATCTTCTTTTTCTCGGTATAAATGATTATATCTTAGTTTCGGAGTCACCTAGTGCAG”, for which the binding signal is 8920 fluorescence intensity (a.u.).

“TTGGTGGTGGTCTCCATTGCTCCCTTCCTCCCTGCCTTTTCGGAGTCACCTAGTGCAG”: the binding signal is 8030 fluorescence intensity (a.u.).

Consider “AAGTGCTCATCATCTCATAGTTAGTAAGCTTAGCAAGCATCGGAGTCACCTAGTGCAG”, for which the binding signal is 8240 fluorescence intensity (a.u.).

Turning to “ACGTGTGGTTGCCGGTTAATACAGCTCCGGCGTTTGACGGCGGAGTCACCTAGTGCAG”, the binding signal was 8520 fluorescence intensity (a.u.).

For “CATGCCACACTTTCCTACCCTTAGGTCCCACATGTCATATCGGAGTCACCTAGTGCAG”, the binding signal was 12200 fluorescence intensity (a.u.).

Take “TCTCTCCATCCATCCCTGCTGCTTCTCCATCTCGCATCTGCGGAGTCACCTAGTGCAG”: the binding signal was 16700 fluorescence intensity (a.u.).

On to “ATAGGCGTCGCCGCGTACGCCATTGCCAGCCTCGTCCCAACGGAGTCACCTAGTGCAG”, for which the binding signal was 8310 fluorescence intensity (a.u.).

As for “GCGGGGTGCGAGTGGATGGGTGGGCGTAGCGCGTGTCGTGCGGAGTCACCTAGTGCAG”, the binding signal was 10400 fluorescence intensity (a.u.).

As to “GGTATCGTTACTTCATTGTTCCGTTTCGCTGTTTCATTATCGGAGTCACCTAGTGCAG”, the binding signal is 14100 fluorescence intensity (a.u.).

Take “GAGATGAACTACTACCGCGAGCGCCACTGCCCCGCGCGCGCGGAGTCACCTAGTGCAG”: the binding signal was 8470 fluorescence intensity (a.u.).

In the case of “TCCCACCACCACTATAATCTCCTCCACTCCCATTCCCTCCCGGAGTCACCTAGTGCAG”, the binding signal was 8660 fluorescence intensity (a.u.).

As to “CCGTCGATTTGGTTGGTTGGTTGATCGGCGGCGAGGAGGGCGGAGTCACCTAGTGCAG”, the binding signal is 11400 fluorescence intensity (a.u.).

In the case of “TTGCCATATTAGCTCTCTGTTTCCATGGACTAATTAGCAACGGAGTCACCTAGTGCAG”, the binding signal was 9080 fluorescence intensity (a.u.).

“CAACCACCTCGCCTCGCCCAGACGCTGACGACTTCACTCCCGGAGTCACCTAGTGCAG”: the binding signal was 11600 fluorescence intensity (a.u.).
